The target of experiment [1] is Ran-binding protein 2 (RanBP2), endogenous in retinal extracts (UniProt Q9ERU9). Kind of experiment: co-IP; retinal extracts; immunoprecipitation with 5 ug of antibody against HKI, mHsp70, Cox11 or RanBP2; Western blot. In general terms: Immunoblotting shows a protein as a band on a membrane.
Experiment [2] deals with T1, GST-LDZIP, leucine zipper domain of human RanBP2 (residues 447-483) fused to GST (human) (UniProt P49792).
T1 sequence: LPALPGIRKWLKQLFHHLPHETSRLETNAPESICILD
Description: pull-down; GST-fused proteins (0.5-2.2 uM) with CHAPS-solubilized retinal extracts; co-precipitates analysed by Western blot; only the target purified.

Chains of the proteins cited; added tags and fusions are not shown.
UniProt Q9ERU9: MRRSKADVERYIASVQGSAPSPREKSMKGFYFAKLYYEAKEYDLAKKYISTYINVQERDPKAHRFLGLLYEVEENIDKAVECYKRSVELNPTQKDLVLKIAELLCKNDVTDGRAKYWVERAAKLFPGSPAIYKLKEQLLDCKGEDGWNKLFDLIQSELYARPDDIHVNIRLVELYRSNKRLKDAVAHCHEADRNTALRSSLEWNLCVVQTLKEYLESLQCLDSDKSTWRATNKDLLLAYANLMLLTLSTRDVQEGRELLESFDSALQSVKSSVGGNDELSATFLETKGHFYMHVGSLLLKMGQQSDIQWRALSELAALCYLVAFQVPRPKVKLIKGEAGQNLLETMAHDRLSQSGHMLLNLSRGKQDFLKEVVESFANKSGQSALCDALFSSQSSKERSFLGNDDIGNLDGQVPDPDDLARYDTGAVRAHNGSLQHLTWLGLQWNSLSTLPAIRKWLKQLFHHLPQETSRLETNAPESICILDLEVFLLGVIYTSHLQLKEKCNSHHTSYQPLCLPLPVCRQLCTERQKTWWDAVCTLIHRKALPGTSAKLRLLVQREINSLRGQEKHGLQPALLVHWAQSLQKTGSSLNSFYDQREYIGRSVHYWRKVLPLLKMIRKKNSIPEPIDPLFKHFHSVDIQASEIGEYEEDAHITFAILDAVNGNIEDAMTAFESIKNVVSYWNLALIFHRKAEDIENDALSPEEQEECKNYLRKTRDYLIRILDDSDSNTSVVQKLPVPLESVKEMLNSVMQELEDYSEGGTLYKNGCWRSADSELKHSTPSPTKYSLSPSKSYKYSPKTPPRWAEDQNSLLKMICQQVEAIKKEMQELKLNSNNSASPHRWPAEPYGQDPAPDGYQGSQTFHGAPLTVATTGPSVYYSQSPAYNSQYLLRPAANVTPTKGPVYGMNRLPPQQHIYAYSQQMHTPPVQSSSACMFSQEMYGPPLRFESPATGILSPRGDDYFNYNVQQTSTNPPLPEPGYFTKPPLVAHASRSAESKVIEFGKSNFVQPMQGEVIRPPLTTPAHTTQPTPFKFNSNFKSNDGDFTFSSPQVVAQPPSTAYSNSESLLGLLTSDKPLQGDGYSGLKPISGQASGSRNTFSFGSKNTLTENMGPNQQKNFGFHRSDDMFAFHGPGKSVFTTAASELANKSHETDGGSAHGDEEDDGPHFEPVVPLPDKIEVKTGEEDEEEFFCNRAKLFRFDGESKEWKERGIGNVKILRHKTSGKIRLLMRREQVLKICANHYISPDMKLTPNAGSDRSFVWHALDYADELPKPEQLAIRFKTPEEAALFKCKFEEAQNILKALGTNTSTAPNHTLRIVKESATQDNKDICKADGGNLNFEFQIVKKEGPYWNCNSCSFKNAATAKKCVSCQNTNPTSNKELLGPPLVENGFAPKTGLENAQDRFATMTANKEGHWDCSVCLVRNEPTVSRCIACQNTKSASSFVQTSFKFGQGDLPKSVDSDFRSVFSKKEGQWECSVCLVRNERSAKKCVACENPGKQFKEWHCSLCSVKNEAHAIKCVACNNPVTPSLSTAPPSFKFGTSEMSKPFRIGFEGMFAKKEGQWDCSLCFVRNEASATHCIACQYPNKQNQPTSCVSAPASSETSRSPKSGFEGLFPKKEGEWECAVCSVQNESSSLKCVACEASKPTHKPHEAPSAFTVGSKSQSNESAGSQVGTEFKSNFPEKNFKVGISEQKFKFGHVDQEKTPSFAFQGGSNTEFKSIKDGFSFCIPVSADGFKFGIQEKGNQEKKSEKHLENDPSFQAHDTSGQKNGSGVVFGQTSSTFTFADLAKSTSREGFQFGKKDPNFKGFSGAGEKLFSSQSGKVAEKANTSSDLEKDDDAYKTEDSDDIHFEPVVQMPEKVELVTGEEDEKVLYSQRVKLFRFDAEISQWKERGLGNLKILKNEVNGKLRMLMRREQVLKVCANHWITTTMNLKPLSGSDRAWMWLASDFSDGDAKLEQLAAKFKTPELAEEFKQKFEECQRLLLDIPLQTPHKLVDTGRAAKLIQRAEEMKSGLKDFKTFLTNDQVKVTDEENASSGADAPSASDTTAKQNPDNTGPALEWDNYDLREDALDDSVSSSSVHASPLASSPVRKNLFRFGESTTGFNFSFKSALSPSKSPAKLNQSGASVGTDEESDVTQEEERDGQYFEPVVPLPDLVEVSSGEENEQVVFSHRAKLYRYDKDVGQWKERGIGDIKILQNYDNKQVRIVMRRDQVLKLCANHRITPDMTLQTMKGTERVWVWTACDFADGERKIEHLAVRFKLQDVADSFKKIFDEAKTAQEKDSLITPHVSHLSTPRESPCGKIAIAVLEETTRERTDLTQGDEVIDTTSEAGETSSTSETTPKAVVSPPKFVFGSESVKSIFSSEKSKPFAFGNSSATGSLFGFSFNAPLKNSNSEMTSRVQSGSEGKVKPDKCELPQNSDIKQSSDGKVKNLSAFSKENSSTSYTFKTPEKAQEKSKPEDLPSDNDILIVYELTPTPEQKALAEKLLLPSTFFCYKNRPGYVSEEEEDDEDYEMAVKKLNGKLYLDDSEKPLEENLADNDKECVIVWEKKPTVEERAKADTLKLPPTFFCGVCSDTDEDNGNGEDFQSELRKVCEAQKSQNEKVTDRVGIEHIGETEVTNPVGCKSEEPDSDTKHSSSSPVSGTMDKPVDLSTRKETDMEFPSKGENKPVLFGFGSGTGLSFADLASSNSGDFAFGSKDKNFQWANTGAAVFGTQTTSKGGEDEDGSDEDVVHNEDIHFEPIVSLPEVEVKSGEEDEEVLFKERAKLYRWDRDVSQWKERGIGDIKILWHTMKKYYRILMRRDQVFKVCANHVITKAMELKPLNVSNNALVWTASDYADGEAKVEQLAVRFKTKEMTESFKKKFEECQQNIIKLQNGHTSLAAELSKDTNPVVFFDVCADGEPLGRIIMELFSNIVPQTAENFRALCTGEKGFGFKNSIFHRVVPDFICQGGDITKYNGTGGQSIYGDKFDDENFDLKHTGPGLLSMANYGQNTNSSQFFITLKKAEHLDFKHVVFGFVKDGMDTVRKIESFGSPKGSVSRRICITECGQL

No constants are given. Whether binding was seen depends on the method and setting. In cells and extracts the contact can be indirect. For some assays here: A result given as binding can be weak or reduced; the word gives no strength. For some assays here: Sequences can lack the tags named with a protein.

With “Hexokinase type I (HKI) (from UniProt P17710-3) (enzyme)”, the binding result in experiment [1] is “binds”; in experiment [2], “no binding (tested: 0.5–2.2 μM of GST-fused proteins)”.

The record behind these values is publication PMC1626108.
